Measured values reported in paper PMC8907714, “Antimicrobial property of Pichia pastoris‐derived natto peptide against foodborne bacteria and its preservative potential to maintain pork quality during refrigerated storage” (Food Science & Nutrition, 2022).

Assays:
[1] = pH of pork during storage; details: pork at 4°C for 8 days; natto peptide 30, 60, 90 μg/ml, nisin 50 μg/ml, butyl paraben 100 μg/ml
[2] = TVB‐N of pork during storage, Kjeldahl assay; details: nisin 50 μg/ml or butyl paraben 100 μg/ml; day 8; pork at 4°C; triplicate
[3] = TBARS assay of pork during storage (MDA content); details: nisin 50 μg/ml or butyl paraben 100 μg/ml; day 8; pork at 4°C; triplicate

In the case of CCCCOC(=O)c1ccc(O)cc1 [Butyl paraben], the “pH variation of pork during storage compared with control” value [1] is reported as “inhibited the increase in pH”, the “TVB‐N value” [2] is reported as 26.0 and the “TBARS (MDA equivalents)” value [3] is reported as 0.6 mg/100 g.
In the case of Nisin, the “pH variation of pork during storage compared with control” value [1] is reported as “obvious increase in pH”, the “TVB‐N value” [2] is reported as 28.1 and the “TBARS (MDA equivalents)” value [3] is reported as 0.5 mg/100 g.
